According to patent US20150044245A1, “PARTIAL MHC CONSTRUCTS AND METHODS OF USE” (Oregon Health & Science University, priority 2012, published 2015):
These are yes or no findings as the source states them, for the method shown. For part of these data: In cells and extracts the contact can be indirect. Some results given as binding are weak or reduced against the parent protein; the word gives no strength.

Tests used:
[1] = molecular target: T1, CD74 (MHC class II invariant chain) of DR*1501-Tg mouse splenocytes and monocytes (mouse) (UniProt P04441); experiment: direct binding of FITC-labeled constructs to immune-purified CD74
T1 sequence (surface biotinylated in the immunoprecipitation experiments, looked up): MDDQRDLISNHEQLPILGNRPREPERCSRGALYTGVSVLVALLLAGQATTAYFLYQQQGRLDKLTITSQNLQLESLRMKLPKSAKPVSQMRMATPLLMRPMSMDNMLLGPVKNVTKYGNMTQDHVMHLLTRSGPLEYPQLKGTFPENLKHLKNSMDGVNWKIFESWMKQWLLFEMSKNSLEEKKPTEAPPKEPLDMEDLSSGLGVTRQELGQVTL

[2] = molecular target: T1, CD74 (MHC class II invariant chain) of DR*1501-Tg mouse splenocytes and monocytes (mouse); experiment: conclusion from co-immunoprecipitation, competition and direct binding
[3] = molecular target: T1, CD74 (MHC class II invariant chain) of DR*1501-Tg mouse splenocytes and monocytes (mouse); experiment: FITC-labeled construct incubated with bead-immunopurified CD74; SDS-PAGE scanned for FITC

- binding [1]: binds
- binding [2]: binds
- binding [3]: binds
B1: DR-α1 domain alone (no DR2-β1 domain or peptide) (other, UniProt P01903 26-109, looked up)
chain: IKEEHVIIQAEFYLNPDQSGEFMFDFDGDEIFHVDMAKKETVWRLEEFGRFASFEAQGALANIAVDKANLEIMTKRSNYTPITN
modifications: labeled with FITC in the direct binding assays
notes: domain: α1
